The target in this experiment is chicken interferon-related antiviral protein (chIRAP) (chicken). In words: affinity purification with mass spectrometry; Co-IP to retrieve chIRAP interacting proteins, analysed by label-free mass spectrometry.

No constants are given. Whether binding was seen depends on the method and setting. Binding seen in cells or lysates may run through a third protein. Here binding means that the protein was enriched with, or labelled near, the bait; the list need not be complete.

B1: chicken peroxiredoxin 1 (chPRDX1) (protein, UniProt P0CB50 1-199)
chain: MSSGKAFIGKPAPDFTATAVMPDGQFKDIKLSDYRGKYVVFFFYPLDFTFVCPTEIIAYSDRADEFKKINCEIIGASVDSHFCHLAWINTPKKQGGLGTMKIPLVSDTKRVIAKDYGVLKEDEGIAYRGLFIIDEKGILRQITINDLPVGRSVDETLRLVQAFQFTDKHGEVCPAGWKPGSDTIKPDVQKSKEYFSKQK
For B1, the binding result was “binds”.

The record behind these values is article PMC12431653.
